The values that follow come from patent US20230339834A1, “CHLORINATED FLUOROAROMATICS AND METHODS OF USING SAME” (3M INNOVATIVE PROPERTIES COMPANY, priority 2019, published 2023).

This series is described as follows: Atmospheric lifetime from relative rate studies with hydroxyl radicals, chloromethane reference. Particulars: reaction with hydroxyl radicals relative to CH3Cl.

Take `F/C(=C(/C(F)(F)F)C(F)(Oc1ccc(Cl)cc1)C(F)(F)C(F)(F)F)C(F)(C(F)(F)F)C(F)(F)F` (stereo not drawn) [Ex. 1, (E)-1-chloro-4-((1,1,1,2,2,3,5,6,7,7,7-undecafluoro-4,6-bis(trifluoromethyl)hept-4-en-3-yl)oxy)benzene]: the “Atm Lifetime” value was under 0.3 yrs. Turning to `FC(F)(F)C(=C(Oc1ccccc1)C(F)(F)C(F)(F)F)C(F)(F)F` [CE2], the “Atm Lifetime” value was 0.27 yrs. Regarding `F/C(=C(/C(F)(F)F)C(F)(Oc1ccccc1)C(F)(F)C(F)(F)F)C(F)(C(F)(F)F)C(F)(F)F` (stereo not drawn) [CE1, (E)-((1,1,1,2,2,3,5,6,7,7,7-Undecafluoro-4,6-bis(trifluoromethyl)hept-4-en-3-yl)oxy)benzene], the “Atm Lifetime” value turned out to be 0.16 yrs.
